Test results taken from paper PMC11426239.
These are yes or no findings as the source states them, for the method shown. Binding seen in cells or lysates may run through a third protein. Here binding means that the protein was enriched with, or labelled near, the bait; the list need not be complete.

Protein sequences, listed by entry. Tags and fused reporters are not part of them.
UniProt Q6A4J8: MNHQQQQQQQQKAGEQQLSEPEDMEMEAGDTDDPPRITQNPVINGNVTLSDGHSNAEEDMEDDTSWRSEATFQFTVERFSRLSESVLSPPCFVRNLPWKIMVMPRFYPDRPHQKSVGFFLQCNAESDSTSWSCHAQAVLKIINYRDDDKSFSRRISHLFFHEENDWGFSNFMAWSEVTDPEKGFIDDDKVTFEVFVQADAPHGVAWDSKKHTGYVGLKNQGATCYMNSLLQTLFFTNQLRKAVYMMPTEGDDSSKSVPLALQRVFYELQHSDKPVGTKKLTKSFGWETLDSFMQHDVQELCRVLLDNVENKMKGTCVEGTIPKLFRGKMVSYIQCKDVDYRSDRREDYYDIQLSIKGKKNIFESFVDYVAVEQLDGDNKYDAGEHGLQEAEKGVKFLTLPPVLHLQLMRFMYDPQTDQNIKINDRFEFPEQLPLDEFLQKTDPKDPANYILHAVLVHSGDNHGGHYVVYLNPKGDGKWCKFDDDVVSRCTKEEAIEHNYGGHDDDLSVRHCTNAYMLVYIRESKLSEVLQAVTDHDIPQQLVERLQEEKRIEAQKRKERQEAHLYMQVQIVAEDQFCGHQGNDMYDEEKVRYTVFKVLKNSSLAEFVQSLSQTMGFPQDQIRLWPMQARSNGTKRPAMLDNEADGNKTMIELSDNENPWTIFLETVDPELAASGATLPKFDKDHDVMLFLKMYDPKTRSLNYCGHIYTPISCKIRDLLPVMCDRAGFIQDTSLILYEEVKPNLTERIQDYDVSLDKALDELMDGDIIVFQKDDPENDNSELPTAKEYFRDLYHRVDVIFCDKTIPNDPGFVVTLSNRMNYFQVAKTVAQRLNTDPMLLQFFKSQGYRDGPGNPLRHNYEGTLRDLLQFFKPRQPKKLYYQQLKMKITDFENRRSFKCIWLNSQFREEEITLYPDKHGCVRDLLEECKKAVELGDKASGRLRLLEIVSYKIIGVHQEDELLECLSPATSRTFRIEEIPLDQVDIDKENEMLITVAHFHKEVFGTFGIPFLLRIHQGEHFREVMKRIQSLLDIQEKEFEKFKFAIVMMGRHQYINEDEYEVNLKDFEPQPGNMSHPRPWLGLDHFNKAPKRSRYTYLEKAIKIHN
UniProt Q8BUN5: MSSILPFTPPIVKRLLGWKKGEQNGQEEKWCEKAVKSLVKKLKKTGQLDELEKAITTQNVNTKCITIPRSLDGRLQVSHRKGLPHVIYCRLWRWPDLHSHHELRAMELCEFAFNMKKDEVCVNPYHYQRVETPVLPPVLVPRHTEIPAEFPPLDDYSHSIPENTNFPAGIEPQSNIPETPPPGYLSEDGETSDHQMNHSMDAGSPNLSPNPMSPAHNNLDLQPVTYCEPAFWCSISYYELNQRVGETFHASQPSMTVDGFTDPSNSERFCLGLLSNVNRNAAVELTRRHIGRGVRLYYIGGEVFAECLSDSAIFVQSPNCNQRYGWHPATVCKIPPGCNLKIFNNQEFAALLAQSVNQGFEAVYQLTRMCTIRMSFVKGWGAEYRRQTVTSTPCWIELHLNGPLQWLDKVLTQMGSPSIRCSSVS

Target: USP7 (ubiquitin-specific protease 7), endogenous in heart tissue of HFpEF mice (mouse (endogenous in heart tissue)) (UniProt Q6A4J8)
Assay: affinity purification with mass spectrometry; co-immunoprecipitation from proteins of cardiac tissue of HFpEF mice, then LC-MS/MS; screen for substrates of USP7

SMAD3, endogenous in heart tissue of HFpEF mice (from UniProt Q8BUN5 1-425)
binding: binds
